PubChem BioAssay AID686943 – Drosophila RNAi Screening Center – 2013

- Screen: 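Search across the genome for regulators of signalling from receptor tyrosine kinase to ERK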 (primary screen)
- Cell system: Drosophila S2R+ haemocyte-like cells expressing YFP-tagged ERK (Rolled)
- Reagents: long dsRNA against Drosophila genes
- Conditions: insulin stimulation versus unstimulated cells; dose and duration not given
- Detection: 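Per-plate z-scores of phospho-ERK immunostaining normalised to YFP-tagged ERK, measured with and without insulin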
- Direction: replicate 1, z-score of dpERK with insulin and replicate 2, z-score of dpERK with insulin: higher = more active ERK per ERK-YFP after insulin; replicate 1, z-score of dpERK under basal conditions: higher = more basal active ERK per ERK-YFP; replicate 1, z-score of ERK-YFP with insulin: higher = more YFP-tagged ERK signal
The deposit covers about 23,000 reagents; below is an unselected part of those with a known target gene and a result. 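Extra replicates exist only for a retested subset of genes; insulin dose and duration not given; both raised and lowered dpERK matter.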 A plus sign joins genes that one reagent is predicted to hit. Not stated in the record: the amount of reagent, the time to read-out.

| gene | dsRNA | replicate 1, z-score of dpERK with insulin | replicate 2, z-score of dpERK with insulin | replicate 1, z-score of dpERK under basal conditions | replicate 1, z-score of ERK-YFP with insulin |
| --- | --- | --- | --- | --- | --- |
| CG34227 | DRSC06788 | -0.31 | -0.68 | 0.31 | 0.58 |
| CG34227 | DRSC07034 | -0.25 | 0.27 | 0.07 | -0.07 |
| Aven (Apoptosis and caspase activation inhibitor) | DRSC19693 | -0.55 | 0.44 | -0.06 | -0.07 |
| eIF3f1 (eukaryotic translation initiation factor 3 subunit f1) | DRSC12328 | -0.51 | -2.25 | -3.17 | -1.16 |
| ckn (caskin) | DRSC06149 | 0.3 | 1.41 | 0.64 | 0.57 |
| Nop17l (Nop17 like) | DRSC06556 | 0.54 | 0.91 | 0.99 | -0.3 |
| eIF3k (eukaryotic translation initiation factor 3 subunit k) | DRSC04056 | 0.2 | 0.86 | -0.54 | 0.62 |
| CG34265 | DRSC08030 | -0.24 | -0.12 | -0.78 | 0.08 |
| CG34160 | DRSC01131 | 1.1 | 0.36 | -0.45 | -0.21 |
| Pi4KIIalpha (Phosphatidylinositol 4-kinase II alpha) | DRSC12322 | 0.7 | -0.18 | -0.45 | 0.89 |
| Pi4KIIalpha (Phosphatidylinositol 4-kinase II alpha) | DRSC12323 | 1.22 | -0.09 | 0.54 | 0.04 |
| Ugt301D1 (UDP-glycosyltransferase family 301 member D1) | DRSC02021 | 0.47 | 0.52 | 1.23 | 0.59 |
| Rab10 | DRSC20572 | -0.52 | -0.19 | -0.09 | 0.32 |
| Alk (Anaplastic lymphoma kinase) | DRSC05918 | 1.24 | 0.66 | -0.08 | 0.67 |
| CG6660 | DRSC16087 | 0.03 | -0.55 | -0.76 | 0.33 |
| Elp3 (Elongator complex protein 3) | DRSC00448 | -0.68 | -0.23 | 0 | -0.03 |
| CG9485 | DRSC04557 | -0.59 | -0.4 | -0.78 | 0.24 |
| CG11626 | DRSC14336 | -0.13 | -0.13 | -0.49 | -0.61 |
| CG3123 | DRSC00570 | 0.49 | -0.03 | -0.4 | -0.69 |
| CG30377 | DRSC06477 | 0.39 | 0.86 | 0.07 | 0.1 |
| CG30377 | DRSC06799 | -0.57 | -0.04 | -0.8 | 0.24 |
| Asph (Aspartyl beta-hydroxylase) | DRSC06783 | -0.41 | -0.06 | -0.95 | 0.43 |
| Asph (Aspartyl beta-hydroxylase) | DRSC07171 | 0.88 | 0.65 | -0.16 | 0.03 |
| CG7806 | DRSC03071 | 0.43 | 0.52 | -0.29 | 0.62 |
| SPH93 (Serine protease homolog 93) | DRSC02978 | 0.26 | -0.01 | 0.8 | -0.02 |
| Fancd2 | DRSC15208 | 0.61 | 0.19 | 0.16 | -0.69 |
| Fancd2 | DRSC22763 | -0.2 | 0.02 | 0.25 | -0.14 |
| Shawl (Shaw-like) | DRSC02209 | 2.02 | 0.26 | 0.37 | -0.9 |
| Shawl (Shaw-like) | DRSC02748 | 0.17 | 0.56 | 0.53 | -0.02 |
| Gle1 (Gle1 RNA export mediator) | DRSC06485 | -0.11 | -0.69 | -0.02 | 0.29 |
| kay (kayak) | DRSC13962 | -0.67 | -0.46 | 1.09 | -0.64 |
| kay (kayak) | DRSC15048 | -0.78 | -3.31 | -2.75 | -0.14 |
| kay (kayak) | DRSC16977 | 5.69 | 2.74 | 2.39 | 0.68 |
| CG10996 | DRSC19363 | 0.46 | 0.36 | -0.18 | 0.28 |
| CG12662 | DRSC17865 | 2.53 | 0.41 | 0.05 | -0.66 |
| Ugt317A1 (UDP-glycosyltransferase family 317 member A1) | DRSC04470 | 1.13 | 0.3 | 0.33 | -0.04 |
| kud (kuduk) | DRSC11086 | 0.17 | -0.78 | -0.03 | 0.85 |
| mRpL44 (mitochondrial ribosomal protein L44) | DRSC12306 | 1.45 | -0.32 | 0.04 | 0.98 |
| Trf2 (TATA box binding protein-related factor 2) | DRSC18727 | 0.15 | -1.18 | -3.23 | 2.83 |
| CG11307 | DRSC11648 | -0.34 | 0.07 | 0.46 | 0.07 |
| CG17019 | DRSC06642 | -0.23 | -0.46 | -0.54 | 0.61 |
| lectin-28C | DRSC03010 | 0.14 | -0.39 | 1.16 | -0.46 |
| CG15739 | DRSC19705 | -0.09 | 0.08 | 0.28 | -0.18 |
| gcm2 | DRSC03538 | -0.23 | -0.28 | 0.17 | -0.91 |
| Ilp6 (Insulin-like peptide 6) | DRSC17906 | 0.64 | -0.62 | 0.77 | 0.15 |
| Jabba | DRSC06521 | 0.1 | 0.36 | 0.98 | 0.11 |
| NC2alpha (Negative Cofactor 2alpha) | DRSC04059 | -0.5 | 1.05 | -0.21 | -0.43 |
| CG14418 | DRSC18637 | -1.03 | -0.35 | -1.74 | -0.16 |
| CG9222 | DRSC03158 | -0.83 | 0.18 | 0.87 | 0.17 |
| Obp83ef (Odorant-binding protein 83ef) | DRSC12268 | 0.17 | -0.48 | 0.9 | 0.08 |
| CG9389 | DRSC11857 | 0.3 | -0.12 | 1.15 | -0.32 |
| CG42362 + CG42363 | DRSC04265 | -0.26 | -0.78 | -0.22 | 0.38 |
| eIF2Bdelta (eukaryotic translation initiation factor 2B subunit delta) | DRSC04058 | 0.37 | -0.16 | 0.09 | -0.77 |
| Lap1 | DRSC07454 | -1.36 | 0.24 | -0.73 | -0.19 |
| Polr1D + DCTN6-p27 | DRSC02094 | 0.24 | 0.15 | -2.24 | -0.11 |
| Manf (Mesencephalic astrocyte-derived neurotrophic factor) | DRSC14091 | 0.49 | 0.16 | -0.17 | -0.45 |
| Hmt-1 (Heavy metal tolerance factor 1) | DRSC15555 | -0.76 | -0.02 | -0.48 | 0.69 |
| CG33230 | DRSC08602 | 0.09 | -0.6 | 1.04 | -0.04 |
| CG17600 | DRSC20638 | 1.03 | -0.15 | 0.08 | 0.19 |
| CG17600 | DRSC20640 | -0.09 | 0.01 | -0.15 | -0.57 |
| CG17600 | DRSC22753 | -0.38 | 0.23 | 0.76 | -0.26 |
| p38a (p38a MAP kinase) | DRSC16743 | 0.35 | 0.01 | 0.22 | 0.35 |
| CG43136 | DRSC17417 | 0.48 | 0.82 | 1.41 | -0.35 |
| TbCMF46 | DRSC02221 | -0.68 | 0.04 | 0.83 | -0.59 |
| CG6833 | DRSC10721 | -0.05 | -0.41 | -0.26 | -0.44 |
| aus (argus) | DRSC13471 | 1.25 | 1.66 | 0.79 | -1.66 |
| aus (argus) | DRSC13473 | 1.72 | 1.62 | 0.22 | -0.08 |
| aus (argus) | DRSC15157 | -0.92 | 1.14 | -1.14 | -0.12 |
| Orc5 (Origin recognition complex subunit 5) | DRSC03390 | 0.34 | 0.27 | -1.17 | 0.2 |
| CG13898 | DRSC08368 | 0.24 | 0.57 | -0.13 | 0.17 |
| CG11400 | DRSC06070 | 0.15 | 0.11 | -0.18 | -0.12 |
| CG34002 | DRSC09512 | 1.61 | -0.19 | 1.07 | -0.16 |
| PGRP-LD + Cralbp + Pmi | DRSC09743 | 0.68 | -0.61 | 0.43 | -0.91 |

Targets listed so far whose target name begins with T or t:
| gene | dsRNA | replicate 1, z-score of dpERK with insulin | replicate 2, z-score of dpERK with insulin | replicate 1, z-score of dpERK under basal conditions | replicate 1, z-score of ERK-YFP with insulin |
| --- | --- | --- | --- | --- | --- |
| Trf2 (TATA box binding protein-related factor 2) | DRSC18727 | 0.15 | -1.18 | -3.23 | 2.83 |
| TbCMF46 | DRSC02221 | -0.68 | 0.04 | 0.83 | -0.59 |
